## Primary screen of a compound library

Data taken from ChEMBL document CHEMBL3988442, “University of Dundee, Small-Polar-MMV Screening Library” (2021).

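Viability assay of Plasmodium falciparum sporozoites; the read-out is not stated. The concentration is filed as 10 mM, unlikely as a test dose, so the dose is not known. Higher reads as lower viability (inferred: compounds with an IC50 in retests scored well above the rest). Strong results were mostly tested again. Size under these conditions: about 34,000 compounds, about 280 of them at 50% or above in at least one test.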

Values are the deposited “Percent Effect”, in %. How 0% and 100% were set is not recorded. Most values in the screen are low, and negative values occur. This is an unselected part of the compounds tested. Two or more numbers in one place are separate tests of the same structure; such repeats can differ widely.

| compound | percent effect |
|---|---|
| `Cn1nc(COCC2CC2)c2c1CN(CC1CC1)CC2.O=C(O)C(F)(F)F.O=C(O)C(F)(F)F` | 13.69 |
| `Cc1ccc(C2=CCN(C(=O)C3CCN(C)C(=O)C3)CC2)cc1` (stereo not drawn) | 5.007 |
| `CCn1nc(C)c2nc(C(C)C)nc(NCCCO)c21` | -8.991 |
| `CC(NC(=O)NCCOc1ccc(Cl)cc1)c1nncn1C` (stereo not drawn) | -2.676 |
| `O=C(NCC1CCCO1)c1cc(-c2ccc3c(c2)CCO3)n[nH]1` (stereo not drawn) | -26.38 and -36.66 |
| `Cn1ccc(CS(=O)(=O)Cc2cccc(F)c2)cc1=O` | 5.598 |
| `Cc1ccc(F)cc1S(=O)(=O)N(C)CC(N)=O` | 7.577 |
| `Cn1cc(C2CCCN2CCc2nc3ccccc3c(=O)[nH]2)cn1` (stereo not drawn) | 8.051 |
| `Cc1cccnc1C(Cc1ccsc1)NCc1cnc(N(C)C)nc1` (stereo not drawn) | -1.422 |
| `CN1CCCCC1c1ncc2c(n1)CCN(CCCc1ccccc1)C2` (stereo not drawn) | 13.91 |
| `[H][C@@]12CN(CCOC)C[C@]1([H])[C@H](OC)CCN2Cc1ccc(C)o1` | -14.5 |
| `Cc1cc(-c2cnc(NCc3cccnc3)nc2C(C)C)on1` | -11.19 |
| `COc1ccc(CN(C)C(=O)NCc2c(C)cc(C)nc2OC)cc1` | 1.885 |
| `Cc1nc(Nc2ncccn2)cc(C2CCN(CC(C)C)C2)n1` (stereo not drawn) | -11.62 |
| `CCN(C)c1ncnc2c1CCN(Cc1ccsc1)CC2.O=C(O)C(F)(F)F.O=C(O)C(F)(F)F` | -10.27 |
| `COC(=O)c1cccn1C1CCN(Cc2ccccc2)CC1` | -16 |
| `CNc1ccnc(N2CC[C@@](O)(C3CCOCC3)[C@H](C)C2)n1` | -7.993 |
| `O=S(=O)(c1ccccc1)N1CCCC1c1cc[nH]n1` (stereo not drawn) | 1.172 |
| `CCn1cc(NC(=O)NCC(O)COc2ccccc2)cn1` (stereo not drawn) | 14.56 |
| `CCNC(=O)N(C)C1CCCc2nc(C)sc21` (stereo not drawn) | 7.658 |
| `[H][C@@]12CCCO[C@]1([H])[C@H](NC(=O)C1CCC1)CN(Cc1ccoc1)C2` | 7.374 |
| `CC(C)COC(C)C(=O)NCc1cc(F)cc(F)c1` (stereo not drawn) | -17.11 |
| `[H][C@]12CC[C@]([H])(CN(CC(=O)N(C)C)C1)N(C(=O)c1cccnc1SC)C2` | 8.158 |
| `[H][C@@]12CN(c3ccc(C)nn3)C[C@H](C(=O)N3CCOCC3)[C@]1([H])CCO2` | 10.27 |
| `CN(C)S(=O)(=O)c1ccc2c(c1)N(Cc1nccn1C)CCC2` | -15.25 |
| `[H][C@@]12CCCO[C@]1([H])[C@H](OCC1CC1)CN2Cc1scnc1C` | 5.536 |
| `CCOCC(=O)NCCn1ccc(-c2ccccn2)n1` | 7.252 |
| `CN(C)C(=O)C1CN(c2ccncn2)CCN(C2CCOCC2)C1` (stereo not drawn) | 10.39 |
| `CN1CC[C@]2(CN(CC3CCOCC3)C[C@H]2c2ccccc2)C1=O.O=C(O)C(F)(F)F` | 5.223 |
| `O=C(O)C(F)(F)F.c1cn2c(n1)CN(Cc1ccsc1)CC(Cn1cncn1)C2` (stereo not drawn) | 0.3567 |
| `Nc1ncnc2nc(C3CCN(C(=O)Cc4ccc(F)cc4)C3)ccc12` (stereo not drawn) | -8.093 |
| `CC(C)(C)n1cc(NC(=O)C2CN(Cc3ccccc3)CCO2)cn1` (stereo not drawn) | -16.67 |
| `COc1ccc2[nH]cc(CCNC(=O)C3CCCN(C(C)=O)C3)c2c1` (stereo not drawn) | 2.656 |
| `CN(C)C(=O)N1CCOCC2(CCN(c3ncccn3)C2)C1.O=C(O)C(F)(F)F` (stereo not drawn) | -1.153 |
| `CCC1c2ccsc2CCN1C(=O)NCCNc1ncccn1` (stereo not drawn) | 7.246 |
| `[H][C@]12CN(CC3CC3)C(=O)[C@@]1([H])CN(S(=O)(=O)CC)C2` | 9.532 |
| `O=C1CCCN1CCC1CCN(C2CCC3(CCNCC3)CC2)CC1` | 0 |
| `CCc1cc(=O)[nH]c2nnc(SCC(=O)OC)n12` | -12.06 and 4.604 and -13.66 |
| `CC(C)CC(C(=O)N1CCCSCC1)N1CCCCC1=O` (stereo not drawn) | -21.94 |
| `O=C(c1cc(C2CCCCN2CCO)n[nH]1)N1CCOCC1.O=CO` (stereo not drawn) | 4.383 |
| `CCOCC1CN(C(=O)c2cccn2C)Cc2cnn(CC3CC3)c21.O=C(O)C(F)(F)F` (stereo not drawn) | -13.74 |
| `Cc1csc2nc3n(c(=O)c12)CCN(Cc1c[nH]cn1)CC3.Cl` | -5.524 |
| `COc1ccccc1C(=O)Nc1ccc(OC2CCN(C)CC2)cc1` | 29.24 and 21.67 and -6.085 |
| `[H][C@@]12CC[C@H](Oc3cccc(F)c3)[C@]1([H])CN(C(=O)c1ncccn1)C2` | -10.76 |
| `COCCO[C@@H]1CCN(C(=O)c2ccc(C)o2)[C@@H]1Cc1cccnc1.O=C(O)C(F)(F)F` | 12.4 |
| `CCOCc1nnc2n1CCN(Cc1c(C)noc1C)CC2.O=C(O)C(F)(F)F` | 19.85 |
| `CCn1cnnc1C1CCN(C(=O)COCCc2ccccc2)CC1` | -3.699 and -24.35 and -22.69 |
| `COCC1Cn2nnc(-c3cnn(C)c3)c2CN1Cc1cccs1.O=C(O)C(F)(F)F` (stereo not drawn) | -3.43 |
| `COc1cc(CNC(C)Cn2cccn2)cc(OC)c1` (stereo not drawn) | -4.489 |
| `COc1ccc(CCc2nnc(NC(=O)C3CC34CCC4)s2)cc1OC` (stereo not drawn) | 37.84 and 43.7 and 33.19 |
| `CC(c1nc(C2CC2)no1)N1CCN(Cc2ccccc2)CC1` (stereo not drawn) | 10.12 |
| `CN1CCN(Cc2ccccc2CNC(=O)c2ccc(Br)cc2)CC1` | -7.382 |
| `Cn1cc2c(n1)C(COCC1CC1)CN(Cc1ccsc1)C2` (stereo not drawn) | 16.33 |
| `CCN1CCOC(CNCc2ccccc2OCC(=O)N(C)C)C1` (stereo not drawn) | 2.852 |
| `CC(=O)NCCc1ccc(S(=O)(=O)N(CC(C)C)C(C)C)s1` | -0.224 |
| `NC[C@H]1CC[C@H](C(NC(=O)C2CC2)c2ccccn2)CC1` (stereo partly drawn) | 4.686 |
| `CC(C)(CNC(=O)NCCOc1cccc(F)c1)C(N)=O` | 5.936 |
| `Cc1ccc(C(=O)N2CCC3(CC2)CC(c2ccccc2)C(=O)N3)cn1.O=C(O)C(F)(F)F` (stereo not drawn) | 5.519 |
| `CN(C)C(=O)CN1CCCCC1c1nc(N)ncc1-c1ccc(Cl)cc1` (stereo not drawn) | -1.537 |
| `CCc1n[nH]c(C2CN(C(=O)c3cncnc3CC)CCO2)n1` (stereo not drawn) | -21.35 and -21.3 and 42.53 |
| `Cc1cnn(CCC(=O)N2CCC(Nc3cccnn3)CC2)c1` | 1.76 |
| `CCOCCC(=O)Nc1cccc(Oc2ccccn2)c1` | -6.877 |
| `CC(C)C(=O)Nc1cc(C(C)(C)C)nn1-c1ccccn1` | -6.681 |
| `CCc1noc(C(C)N2CCN(c3ccc(C#N)cn3)CC2)n1` (stereo not drawn) | -10.26 |
| `O=C(c1ccco1)N1CCCC2(C1)CN(c1nncs1)CCO2` (stereo not drawn) | -1.401 |
| `Cn1c(CN2CCCC2)nnc1C1CCCN(C(=O)CN2CCCC2)C1` (stereo not drawn) | -5.843 |
| `COc1c(CNC(c2ccccc2)c2nccn2C)c(C)nn1C` (stereo not drawn) | 11.35 |
| `Cc1noc(C)c1CN1CCN(C(C)c2nc(C3CC3)no2)CC1` (stereo not drawn) | -5.132 |
| `O=C(O)C(F)(F)F.O=C(O)C(F)(F)F.c1ccc(CN2CCc3nnc(CN4CCCCC4)n3CC2)nc1` | 1.678 |
| `[H][C@@]12C[C@@H](C(=O)NCC3CC3)N(C)[C@]1([H])CN(Cc1cccnc1OC)C2` | 1.805 |
| `O=C(O)C(F)(F)F.[H][C@@]12CNC(=O)[C@H](C)[C@]1([H])CN(Cc1cccc(F)c1)C2` | -1.083 |
| `O=C(N[C@@H]1CCNC[C@H]1O)c1cc(F)cc(Cl)c1` | -9.478 |
| `Cc1nc(C)n(C2CCCN(C(=O)CCOC(C)C)C2)n1` (stereo not drawn) | 5.53 |
| `CN(C)C(=O)COC1COC2(CCN(c3cccc(F)c3)CC2)C1.O=C(O)C(F)(F)F` (stereo not drawn) | 12.29 |
| `Cc1cc(C)n(-c2nc(C(=O)NCCS(=O)(=O)N3CCCCC3)cs2)n1` | 9.749 |
| `Cc1csc(NCC(=O)c2c[nH]c3ccccc23)n1.I` | -28.94 and -52.2 |
| `O=C(O)C(F)(F)F.[H][C@@]12OCCN(S(=O)(=O)CCC)[C@@]1([H])CC[C@H]2OCc1ccccn1` | -9.245 |
| `Cc1nc(C2CCN(c3ccccc3)CC2)no1` | 2.524 |

Some entries from above, unchanged:

compound,percent effect
Cc1ccc(F)cc1S(=O)(=O)N(C)CC(N)=O,7.577
CN(C)C(=O)CN1CCCCC1c1nc(N)ncc1-c1ccc(Cl)cc1 (stereo not drawn),-1.537
CCc1noc(C(C)N2CCN(c3ccc(C#N)cn3)CC2)n1 (stereo not drawn),-10.26
O=C(NCC1CCCO1)c1cc(-c2ccc3c(c2)CCO3)n[nH]1 (stereo not drawn),-26.38 and -36.66
Cc1nc(C2CCN(c3ccccc3)CC2)no1,2.524
CCn1cc(NC(=O)NCC(O)COc2ccccc2)cn1 (stereo not drawn),14.56